PubChem BioAssay AID743448 | Peter MacCallum Cancer Centre – 2014

Assay: 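Test whether knock-downs sensitising to vorinostat hold across several colon lines but not etoposide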 (follow-up of hits)
Cell system: four human colon cancer cell lines: HCT116-VR (vorinostat-resistant HCT116 derivative), SW480, SW620 and LIM1215
Reagent: siRNA pool against human genes, 40 nM siRNA pool
Time to read-out: drug added two days after transfection, read one day later
Treatment: vorinostat 2.5 µM on one half of each plate, etoposide 5 µM on the other half
Cell line and drug panel: SW620 cells with etoposide
Measured: 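Caspase 3/7 activity by luminescence and live-cell viability by fluorescence, each given as a ratio to mock-transfected wells and as a robust z-score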
Direction: caspase ratio to mock: higher = more caspase activity than mock; viability ratio to mock: higher = more live cells than mock; caspase robust z-score: higher = more caspase activity, more apoptosis; viability robust z-score: higher = more live cells
Active means: 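Hit means caspase ratio to mock at least 1.6, or viability ratio to mock at most 0.75; wells with strong death in the absence of drug get no call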
Calls: active = caspase or viability hit in this panel; inactive = no change, or unhealthy well
Shown is an unselected part of the 106 reagents, under one of the conditions tested. 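Calls are per line and drug panel including etoposide, not vorinostat-specific; gene picks needed hits in two or more extra lines with vorinostat versus etoposide.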 Reagent sequences are not shown.

gene,caspase ratio to mock,viability ratio to mock,caspase robust z-score,viability robust z-score,outcome
FANCA (GeneID 2175),1.58,0.98,1,0.86,inactive
EIF3I (GeneID 8668),0.48,0.5,-1.6,-4.04,active
PLAG1 (GeneID 5324),0.94,0.96,-0.54,0.75,inactive
PNN (GeneID 5411),1.58,0.86,0.96,-0.38,inactive
THAP1 (GeneID 55145),0.96,1.04,-0.48,1.6,inactive
CBX7 (GeneID 23492),2.09,0.96,2.11,0.68,active
RGS18 (GeneID 64407),0.77,1.09,-0.94,2.03,inactive
RWDD2A (GeneID 112611),1.19,0.9,0.06,0.15,inactive
POLR2G (GeneID 5436),1.59,0.84,0.98,-0.44,inactive
SH3GLB2 (GeneID 56904),1.61,0.96,1.07,0.71,active
RLN3 (GeneID 117579),1.38,0.94,0.52,0.56,inactive
NUP54 (GeneID 53371),0.97,0.82,-0.48,-0.62,inactive
UTP3 (GeneID 57050),0.84,0.94,-0.71,0.46,inactive
AKAP8 (GeneID 10270),0.81,0.9,-0.82,0.07,inactive
BDP1 (GeneID 55814),0.71,0.88,-1.04,-0.09,inactive
POLR2K (GeneID 5440),1.13,0.8,-0.05,-0.92,inactive
AQR (GeneID 9716),1.75,0.54,1.36,-3.57,active
HPCAL1 (GeneID 3241),0.98,0.89,-0.43,-0.01,inactive
MRPL19 (GeneID 9801),2.03,1,1.94,1.19,active
EIF3L (GeneID 51386),1.13,0.94,-0.04,0.48,inactive

2 entries from above, sorted by “caspase ratio to mock”, highest first:
gene,caspase ratio to mock,viability ratio to mock,caspase robust z-score,viability robust z-score,outcome
AKAP8 (GeneID 10270),0.81,0.9,-0.82,0.07,inactive
BDP1 (GeneID 55814),0.71,0.88,-1.04,-0.09,inactive
